This note sets out measurements from article PMC7862700.

The list shows a part of the results, in another mix than the full data. For part of these data: At the low end of the ranking the order means little. The list shows a part of the results. For part of these data: Construct or isoform of the protein are uncertain.

Assay in all cases: DAPPL (digital affinity profiling via proximity ligation, sequencing)
Holding throughout (settings): 10 mM Tris-HCl pH 7.5, 50 mM NaCl, 1 mM DTT, 4% glycerol, room temperature, 30 min; GST-TFs on glutathione beads, 16-mer random dsDNA library, 0.1% …; high values mean tight binding; double strand, one strand shown; scale: fold enrichment (6-mer frequency, TF over GST control)

The target in one experiment is T1, GABPA (UniProt Q06546).
T1 sequence: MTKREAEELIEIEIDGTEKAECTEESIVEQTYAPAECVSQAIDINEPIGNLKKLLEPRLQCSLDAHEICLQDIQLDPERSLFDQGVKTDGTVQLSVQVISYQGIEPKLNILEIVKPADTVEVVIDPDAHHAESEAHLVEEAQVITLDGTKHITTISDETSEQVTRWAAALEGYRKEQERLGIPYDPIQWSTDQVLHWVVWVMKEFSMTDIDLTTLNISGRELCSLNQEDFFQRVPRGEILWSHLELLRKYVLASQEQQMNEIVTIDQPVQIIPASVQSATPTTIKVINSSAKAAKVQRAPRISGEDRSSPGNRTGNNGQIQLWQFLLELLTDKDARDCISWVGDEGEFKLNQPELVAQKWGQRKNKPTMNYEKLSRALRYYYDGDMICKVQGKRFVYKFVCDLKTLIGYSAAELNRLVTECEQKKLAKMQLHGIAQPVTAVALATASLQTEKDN

The next experiment addresses T2, ETS1 (UniProt P14921).
T2 sequence: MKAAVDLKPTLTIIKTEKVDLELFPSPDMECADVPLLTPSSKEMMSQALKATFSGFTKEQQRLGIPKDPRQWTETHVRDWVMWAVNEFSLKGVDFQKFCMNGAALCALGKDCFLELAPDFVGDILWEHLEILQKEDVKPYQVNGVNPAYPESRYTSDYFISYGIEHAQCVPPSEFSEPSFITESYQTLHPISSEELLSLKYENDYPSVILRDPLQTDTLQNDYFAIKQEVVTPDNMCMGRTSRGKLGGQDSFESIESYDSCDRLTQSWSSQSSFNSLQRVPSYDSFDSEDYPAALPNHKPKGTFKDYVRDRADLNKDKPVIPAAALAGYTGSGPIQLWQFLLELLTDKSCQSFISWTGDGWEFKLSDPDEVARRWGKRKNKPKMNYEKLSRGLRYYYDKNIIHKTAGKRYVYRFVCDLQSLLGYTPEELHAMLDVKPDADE

The target in the next experiment is T3, SPDEF (UniProt O95238).
T3 sequence: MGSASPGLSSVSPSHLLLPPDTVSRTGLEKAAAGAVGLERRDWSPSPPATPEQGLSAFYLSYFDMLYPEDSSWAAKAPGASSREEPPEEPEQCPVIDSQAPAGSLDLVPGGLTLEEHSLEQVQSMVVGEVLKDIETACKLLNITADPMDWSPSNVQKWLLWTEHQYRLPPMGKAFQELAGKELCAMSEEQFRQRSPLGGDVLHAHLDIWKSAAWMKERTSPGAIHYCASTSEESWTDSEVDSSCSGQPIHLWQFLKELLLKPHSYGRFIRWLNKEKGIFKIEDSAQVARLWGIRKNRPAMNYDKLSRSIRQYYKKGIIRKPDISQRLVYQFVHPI

With AGAACC, the binding signal came to 0.885 with GABPA, 0.939 with ETS1 and 0.966 with SPDEF.

In the case of AGCGCT, the binding signal with GABPA is 1.04; with ETS1, 1.04; with SPDEF it was 0.933.

Turning to CCCACT, the figures for the binding signal with GABPA, in the experiment with ETS1 and with SPDEF were 1.26, 1.4 and 1.27, respectively.

In the case of AGTTTA, the binding signal in the experiment with GABPA stood at 0.968; with ETS1, 1.01; with SPDEF, 0.898.

AAATCG: the binding signal worked out at 0.948 with GABPA, 1.06 in the experiment with ETS1 and 0.942 with SPDEF.

Turning to AGAATG, the binding signal with GABPA was determined as 0.976; with ETS1 it was 0.984; with SPDEF, 0.984.

As to AGCATG, the figures for the binding signal with GABPA, with ETS1 and with SPDEF were 0.948, 0.949 and 0.96, respectively.

Take GTTTAG: the binding signal came out at 0.857 with GABPA, 0.827 with ETS1 and 0.862 with SPDEF.

Consider AGAAAC, for which the binding signal with GABPA worked out at 0.943; with ETS1, 1.02; in the experiment with SPDEF, 0.924.

Regarding GGCTTT, the binding signal in the experiment with GABPA was 0.942; with ETS1 it was 1.02; with SPDEF, 1.

Regarding GGTGGT, the binding signal turned out to be 0.941 with GABPA, 0.928 with ETS1 and 0.945 with SPDEF.

As for CAGTAT, the binding signal in the experiment with GABPA was found to be 0.928; with ETS1 it was 0.931; with SPDEF, 0.907.

Regarding GACCCA, the figures for the binding signal with GABPA, with ETS1 and in the experiment with SPDEF were 0.943, 0.884 and 0.902, respectively.

With GGCATA, the figures for the binding signal in the experiment with GABPA, with ETS1 and with SPDEF were 0.882, 0.924 and 0.918, respectively.

As for GAATAG, the results for the binding signal in the experiment with GABPA, with ETS1 and with SPDEF were 0.95, 0.868 and 1.02, respectively.

On to AGATCA, for which the binding signal in the experiment with GABPA came out at 0.935; in the experiment with ETS1, 0.888; in the experiment with SPDEF, 0.914.

Consider CTAGTG, for which the binding signal came to 0.903 with GABPA, 0.808 in the experiment with ETS1 and 0.824 with SPDEF.

Take AGTTTG: the binding signal with GABPA is 0.99; in the experiment with ETS1 it was 0.9; with SPDEF, 0.871.

On to ACTGTC, for which the values for the binding signal with GABPA, in the experiment with ETS1 and with SPDEF were 0.959, 0.957 and 0.974, respectively.

For the sequence TAGTTG, the binding signal with GABPA was 0.905; with ETS1, 1.03; with SPDEF, 0.948.

For GAAAGC, the results for the binding signal in the experiment with GABPA, with ETS1 and with SPDEF were 0.91, 0.845 and 0.893, respectively.

Consider GCCACC, for which the binding signal was 0.927 with GABPA, 0.917 in the experiment with ETS1 and 0.89 with SPDEF.

For GATGGA, the figures for the binding signal with GABPA, in the experiment with ETS1 and with SPDEF were 0.94, 0.944 and 0.868, respectively.

With GCCGCT, the binding signal was 0.985 with GABPA, 1.02 in the experiment with ETS1 and 0.993 with SPDEF.

Take TGGGCG: the binding signal with GABPA was determined as 0.75; in the experiment with ETS1, 0.803; in the experiment with SPDEF, 0.814.

Regarding GTCCCA, the figures for the binding signal with GABPA, with ETS1 and with SPDEF were 1.11, 1.14 and 0.989, respectively.

As for GTATGA, the binding signal came out at 0.935 with GABPA, 0.953 with ETS1 and 0.96 in the experiment with SPDEF.

Turning to GCATCT, the values for the binding signal in the experiment with GABPA, with ETS1 and in the experiment with SPDEF were 1.03, 1.03 and 0.939, respectively.

As to CCGGCG, the figures for the binding signal with GABPA, with ETS1 and in the experiment with SPDEF were 0.969, 0.944 and 0.974, respectively.

As for AGTCTT, the binding signal in the experiment with GABPA amounted to 0.907; with ETS1, 1.01; with SPDEF, 0.866.

For GGTTAC, the binding signal in the experiment with GABPA stood at 0.929; with ETS1 it was 1.05; with SPDEF, 0.978.

Consider CTGATT, for which the binding signal was 1.14 with GABPA, 1.22 with ETS1 and 1.21 with SPDEF.

CCTTTT: the binding signal was found to be 1.46 in the experiment with GABPA, 1.48 with ETS1 and 1.55 with SPDEF.

As for TCAAGC, the binding signal came to 0.978 with GABPA, 1.1 in the experiment with ETS1 and 0.939 with SPDEF.

Turning to GAATGA, the binding signal is 0.991 with GABPA, 0.961 with ETS1 and 0.879 in the experiment with SPDEF.

Regarding AGAACT, the binding signal turned out to be 0.888 with GABPA, 0.941 in the experiment with ETS1 and 0.933 with SPDEF.

Turning to GAAGAA, the binding signal was found to be 1.14 in the experiment with GABPA, 1.11 with ETS1 and 1.09 with SPDEF.

Regarding TTTAAT, the results for the binding signal with GABPA, with ETS1 and with SPDEF were 1.29, 1.21 and 1.17, respectively.

Turning to ATGGGA, the binding signal came to 0.952 with GABPA, 0.919 with ETS1 and 0.918 with SPDEF.

Take CCCTAG: the binding signal with GABPA was determined as 0.926; with ETS1, 0.96; with SPDEF it was 0.96.

Take GGCAAT: the binding signal with GABPA worked out at 1; with ETS1, 0.932; with SPDEF, 0.914.

Consider CAAGTA, for which the binding signal amounted to 1.19 with GABPA, 1.09 in the experiment with ETS1 and 1.08 with SPDEF.

Turning to ACAAGT, the binding signal in the experiment with GABPA came to 0.961; with ETS1 it was 0.934; in the experiment with SPDEF, 0.894.

TCTAGA: the binding signal stood at 1.02 with GABPA, 0.992 with ETS1 and 0.959 with SPDEF.

In the case of CGAAGG, the figures for the binding signal in the experiment with GABPA, in the experiment with ETS1 and in the experiment with SPDEF were 1, 0.885 and 0.819, respectively.

Regarding CTAGGG, the values for the binding signal in the experiment with GABPA, with ETS1 and in the experiment with SPDEF were 0.901, 0.871 and 0.809, respectively.

For the sequence AACCGA, the binding signal with GABPA worked out at 0.995; with ETS1, 1.04; with SPDEF, 0.933.

On to GGGCAT, for which the binding signal was determined as 0.861 with GABPA, 0.975 with ETS1 and 0.902 with SPDEF.

For TGGTGA, the binding signal was 0.896 with GABPA, 0.963 with ETS1 and 0.986 with SPDEF.

Regarding CAAAGA, the values for the binding signal in the experiment with GABPA, in the experiment with ETS1 and with SPDEF were 0.915, 0.981 and 0.98, respectively.

For the sequence AGGGTT, the binding signal with GABPA was found to be 0.964; in the experiment with ETS1 it was 0.888; in the experiment with SPDEF, 0.899.

AACGGT: the binding signal was found to be 0.922 in the experiment with GABPA, 0.91 in the experiment with ETS1 and 0.892 with SPDEF.

With CCATAG, the binding signal with GABPA turned out to be 0.964; with ETS1, 0.867; in the experiment with SPDEF, 0.89.

Regarding ACGCAC, the binding signal in the experiment with GABPA was determined as 1.04; with ETS1, 1.07; with SPDEF, 0.912.

In the case of TGGGCA, the binding signal turned out to be 0.957 with GABPA, 0.956 in the experiment with ETS1 and 0.981 with SPDEF.

For AGGGAA, the binding signal with GABPA stood at 0.837; with ETS1, 0.929; with SPDEF, 0.916.

Take CGAACG: the binding signal with GABPA stood at 0.929; with ETS1 it was 0.985; with SPDEF it was 0.975.

For GTATCG, the binding signal with GABPA is 0.911; with ETS1, 0.919; with SPDEF, 0.973.

GCGAAG: the binding signal in the experiment with GABPA came out at 0.914; with ETS1, 0.823; with SPDEF, 0.785.

Regarding AGTGAC, the binding signal with GABPA was found to be 0.936; in the experiment with ETS1, 1.12; with SPDEF it was 0.95.
